# US20020198219A1, “2-pyridinamine compositions and related methods” (priority 2000, published 2002)
# Test system: differentiated P19 neurons
# Assay: Differentiated P19 excitotoxicity assay (glutamate/glycine-induced death, Alamar Blue)
# Format: cell-based, murine
# Settings: 3 mM glutamate + 1 mM glycine; mean of three separate curves
# Procedure: Alamar Blue fluorescence, an indicator of cell viability, was used to determine cell viability after an NMDA-induced cytotoxic insult. […] However, since raw fluorescence counts vary from experiment to experiment, FIGS. 2A, 2B, and 2C are expressed as a percent of control.
# Glutamate toxicity dose response in the presence of a constant 1 mM glycine concentration was measured in the differentiated P19 neurons. The curve generated through the data points is the average of 6 separate dose response curves. Data points are represented as the percent of control cells ±standard error. % control=(([Glutamate]exp−[Glutamate]max)/(Controlvehicle−[Glutamate]max))×100. […]
# Cell viability was determined. Compounds that prevented excitotoxicity were determined by measuring the percentage of viable cells compared to differentiated P19 cells that were not presented with a toxic insult (Table I).
# Cell viability was measured using two methods. The first method was a confocal, single-cell fluorescence imaging-based method using the live cell dye carboxy-fluorescein diacetate (CFDA). […] CFDA fluorescence was measured using a modified Attofluor Imager device (Atto Instruments, Rockville Pike, Md.). […]
# The second method for measuring cell viability was a plate reader method. […] Baseline fluorescence counts were read at room temperature in a Wallac plate reader immediately after addition of Alamar blue. […]
smiles,measurement,value
C[S+]([O-])c1ccc(-c2nc(-c3ccncc3)c(-c3ccc(F)cc3)[nH]2)cc1 (stereo not shown) [SB203580],IC50 for Neuroprotection [lower-upper 95% C.I.],Ineffective
